Article PMC11514447, “Eukaryotic initiation factor 4B is a multi-functional RNA binding protein that regulates histone mRNAs”

Protein sequences, listed by entry. Tags and fused reporters are not part of them.
UniProt P23588: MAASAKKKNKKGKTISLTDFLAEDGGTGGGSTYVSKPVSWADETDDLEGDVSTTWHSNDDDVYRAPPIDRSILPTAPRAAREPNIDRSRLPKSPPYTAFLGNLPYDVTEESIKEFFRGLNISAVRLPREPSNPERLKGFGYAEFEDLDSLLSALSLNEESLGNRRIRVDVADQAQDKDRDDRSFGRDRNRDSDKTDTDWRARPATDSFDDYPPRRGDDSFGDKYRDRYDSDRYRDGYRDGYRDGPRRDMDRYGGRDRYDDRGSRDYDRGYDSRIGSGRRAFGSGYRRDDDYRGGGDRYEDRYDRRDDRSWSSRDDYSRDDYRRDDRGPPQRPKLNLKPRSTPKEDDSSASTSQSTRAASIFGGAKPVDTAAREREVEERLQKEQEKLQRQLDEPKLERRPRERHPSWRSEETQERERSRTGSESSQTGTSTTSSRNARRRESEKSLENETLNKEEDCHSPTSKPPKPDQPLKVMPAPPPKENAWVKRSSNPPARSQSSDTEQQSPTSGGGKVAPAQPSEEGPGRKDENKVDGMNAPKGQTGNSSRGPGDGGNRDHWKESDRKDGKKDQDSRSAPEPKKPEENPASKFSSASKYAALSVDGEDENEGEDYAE
UniProt Q13283: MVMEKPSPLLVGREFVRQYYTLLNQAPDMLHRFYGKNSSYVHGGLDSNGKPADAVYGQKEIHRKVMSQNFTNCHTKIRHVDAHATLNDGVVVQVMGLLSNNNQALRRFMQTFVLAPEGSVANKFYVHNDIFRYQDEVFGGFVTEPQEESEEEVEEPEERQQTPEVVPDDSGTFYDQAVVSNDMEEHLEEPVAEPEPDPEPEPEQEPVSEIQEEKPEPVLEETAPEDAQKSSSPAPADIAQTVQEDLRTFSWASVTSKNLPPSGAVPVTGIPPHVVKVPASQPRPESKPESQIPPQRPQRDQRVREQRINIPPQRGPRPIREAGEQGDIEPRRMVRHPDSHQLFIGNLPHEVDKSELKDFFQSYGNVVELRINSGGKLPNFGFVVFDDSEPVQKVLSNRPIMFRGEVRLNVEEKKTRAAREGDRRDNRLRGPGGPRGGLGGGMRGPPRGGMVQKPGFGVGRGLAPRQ
UniProt P38919: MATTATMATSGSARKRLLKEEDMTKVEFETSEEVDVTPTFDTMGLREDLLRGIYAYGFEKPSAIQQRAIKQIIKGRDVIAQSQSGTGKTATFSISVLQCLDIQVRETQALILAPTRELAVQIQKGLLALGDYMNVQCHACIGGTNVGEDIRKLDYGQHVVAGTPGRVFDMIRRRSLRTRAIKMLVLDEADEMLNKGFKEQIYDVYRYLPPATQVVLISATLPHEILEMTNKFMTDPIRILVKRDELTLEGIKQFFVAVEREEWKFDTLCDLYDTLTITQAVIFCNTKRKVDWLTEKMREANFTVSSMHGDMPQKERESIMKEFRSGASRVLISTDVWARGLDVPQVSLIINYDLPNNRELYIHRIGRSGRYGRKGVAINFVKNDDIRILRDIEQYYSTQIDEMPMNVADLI
UniProt P51114: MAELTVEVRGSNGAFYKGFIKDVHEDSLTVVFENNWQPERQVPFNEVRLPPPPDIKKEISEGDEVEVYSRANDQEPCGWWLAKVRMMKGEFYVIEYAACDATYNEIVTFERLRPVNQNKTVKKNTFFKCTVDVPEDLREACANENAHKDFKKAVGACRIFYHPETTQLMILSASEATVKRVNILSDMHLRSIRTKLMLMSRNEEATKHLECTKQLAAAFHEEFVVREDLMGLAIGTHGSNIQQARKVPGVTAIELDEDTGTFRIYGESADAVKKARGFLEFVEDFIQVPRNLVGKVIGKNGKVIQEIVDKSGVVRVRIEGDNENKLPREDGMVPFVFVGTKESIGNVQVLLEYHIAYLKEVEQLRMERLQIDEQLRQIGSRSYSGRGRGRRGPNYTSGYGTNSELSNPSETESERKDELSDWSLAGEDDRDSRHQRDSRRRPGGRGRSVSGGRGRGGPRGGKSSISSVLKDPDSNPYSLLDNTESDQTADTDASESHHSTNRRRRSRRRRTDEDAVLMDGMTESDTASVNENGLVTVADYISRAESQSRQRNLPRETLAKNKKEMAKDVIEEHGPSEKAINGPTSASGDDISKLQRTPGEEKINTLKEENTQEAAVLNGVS
UniProt P04406: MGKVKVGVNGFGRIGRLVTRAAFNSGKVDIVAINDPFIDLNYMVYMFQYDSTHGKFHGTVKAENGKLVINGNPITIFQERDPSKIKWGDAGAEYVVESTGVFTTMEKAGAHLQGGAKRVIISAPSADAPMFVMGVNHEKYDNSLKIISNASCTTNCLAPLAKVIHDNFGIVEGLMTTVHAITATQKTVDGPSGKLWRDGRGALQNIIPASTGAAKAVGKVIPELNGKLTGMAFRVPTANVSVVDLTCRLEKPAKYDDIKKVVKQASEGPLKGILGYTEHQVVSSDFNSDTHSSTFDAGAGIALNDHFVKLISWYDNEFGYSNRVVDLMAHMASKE
UniProt Q14240: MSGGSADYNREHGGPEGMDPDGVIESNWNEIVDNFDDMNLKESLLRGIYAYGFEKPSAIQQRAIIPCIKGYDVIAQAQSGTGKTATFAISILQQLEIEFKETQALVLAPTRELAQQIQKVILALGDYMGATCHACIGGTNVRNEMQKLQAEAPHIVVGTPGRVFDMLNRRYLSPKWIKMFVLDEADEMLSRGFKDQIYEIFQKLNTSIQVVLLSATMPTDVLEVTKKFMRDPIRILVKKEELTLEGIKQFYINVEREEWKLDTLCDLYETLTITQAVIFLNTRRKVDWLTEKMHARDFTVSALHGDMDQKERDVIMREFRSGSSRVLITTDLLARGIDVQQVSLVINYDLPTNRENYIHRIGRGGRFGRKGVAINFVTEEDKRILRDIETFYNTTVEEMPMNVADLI

Each molecule was assayed against eukaryotic initiation factor 4B (human (endogenous in DoHH-2 and GM01953)) (UniProt P23588) (assay: affinity purification with mass spectrometry; eIF4B antibody covalently coupled to Dynabeads; DoHH-2 and GM01953 lysates, 2 h at 4°C; RNA digested with RNase T1; washed three times in whole-cell lysis buffer; LC-MS/MS; enrichment against rabbit IgG control; triplicate).

Molecule | binding
G3BP1 (from UniProt Q13283 1-466) | binds
eIF4A3 (from UniProt P38919 1-411) | binds
UPF1 (up-frameshift protein 1) (protein, UniProt Q92900 1-1129) MSVEAYGPSSQTLTFLDTEEAELLGADTQGSEFEFTDFTLPSQTQTPPGGPGGPGGGGAGGPGGAGAGAAAGQLDAQVGPEGILQNGAVDDSVAKTSQLLAELNFEEDEEDTYYTKDLPIHACSYCGIHDPACVVYCNTSKKWFCNGRGNTSGSHIVNHLVRAKCKEVTLHKDGPLGETVLECYNCGCRNVFLLGFIPAKADSVVVLLCRQPCASQSSLKDINWDSSQWQPLIQDRCFLSWLVKIPSEQEQLRARQITAQQINKLEELWKENPSATLEDLEKPGVDEEPQHVLLRYEDAYQYQNIFGPLVKLEADYDKKLKESQTQDNITVRWDLGLNKKRIAYFTLPKTDSGNEDLVIIWLRDMRLMQGDEICLRYKGDLAPLWKGIGHVIKVPDNYGDEIAIELRSSVGAPVEVTHNFQVDFVWKSTSFDRMQSALKTFAVDETSVSGYIYHKLLGHEVEDVIIKCQLPKRFTAQGLPDLNHSQVYAVKTVLQRPLSLIQGPPGTGKTVTSATIVYHLARQGNGPVLVCAPSNIAVDQLTEKIHQTGLKVVRLCAKSREAIDSPVSFLALHNQIRNMDSMPELQKLQQLKDETGELSSADEKRYRALKRTAERELLMNADVICCTCVGAGDPRLAKMQFRSILIDESTQATEPECMVPVVLGAKQLILVGDHCQLGPVVMCKKAAKAGLSQSLFERLVVLGIRPIRLQVQYRMHPALSAFPSNIFYEGSLQNGVTAADRVKKGFDFQWPQPDKPMFFYVTQGQEEIASSGTSYLNRTEAANVEKITTKLLKAGAKPDQIGIITPYEGQRSYLVQYMQFSGSLHTKLYQEVEIASVDAFQGREKDFIILSCVRANEHQGIGFLNDPRRLNVALTRARYGVIIVGNPKALSKQPLWNHLLNYYKEQKVLVEGPLNNLRESLMQFSKPRKLVNTINPGARFMTTAMYDAREAIIPGSVYDRSSQGRPSSMYFQTHDQIGMISAGPSHVAAMNIPIPFNLVMPPMPPPGYFGQANGPAAGRGTPKGKTGRGGRQKNRFGLPGPSQTNLPNSQASQDVASQPFSQGALTQGYISMSQPSQMSQPGLSQPELSQDSYLGDEFKSQIDVALSQDSTYQGERAYQHGGVTGLSQY | binds

Results, then the molecule that gave them:

binding | Molecule
binds | FXR1 (from UniProt P51114 1-621)
no binding | GAPDH (from UniProt P04406 1-335)
binds | eIF4A2 (from UniProt Q14240 1-407)

Results are given in words; binding and its absence hold for the method and conditions named. In cells and extracts the contact can be indirect. A yes stands for co-enrichment or nearness to the bait. Other partners may have been found. No binding means not detected with the bait.
